Laboratory results reported in publication PMC9076621.
No constants are given. Whether binding was seen depends on the method and setting. Binding seen in cells or lysates may run through a third protein. Some entries that bind do so weakly or less than the wild type.

Protein sequences, listed by entry. Tags and fused reporters are not part of them. Residues count along the entry.
UniProt P09429: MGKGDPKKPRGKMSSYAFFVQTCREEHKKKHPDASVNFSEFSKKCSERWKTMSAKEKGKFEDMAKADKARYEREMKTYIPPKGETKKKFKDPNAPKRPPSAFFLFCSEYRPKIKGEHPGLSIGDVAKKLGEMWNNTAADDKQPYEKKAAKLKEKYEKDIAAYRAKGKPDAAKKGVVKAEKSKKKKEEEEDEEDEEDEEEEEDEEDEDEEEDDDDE
UniProt P29323, residues 19-1055: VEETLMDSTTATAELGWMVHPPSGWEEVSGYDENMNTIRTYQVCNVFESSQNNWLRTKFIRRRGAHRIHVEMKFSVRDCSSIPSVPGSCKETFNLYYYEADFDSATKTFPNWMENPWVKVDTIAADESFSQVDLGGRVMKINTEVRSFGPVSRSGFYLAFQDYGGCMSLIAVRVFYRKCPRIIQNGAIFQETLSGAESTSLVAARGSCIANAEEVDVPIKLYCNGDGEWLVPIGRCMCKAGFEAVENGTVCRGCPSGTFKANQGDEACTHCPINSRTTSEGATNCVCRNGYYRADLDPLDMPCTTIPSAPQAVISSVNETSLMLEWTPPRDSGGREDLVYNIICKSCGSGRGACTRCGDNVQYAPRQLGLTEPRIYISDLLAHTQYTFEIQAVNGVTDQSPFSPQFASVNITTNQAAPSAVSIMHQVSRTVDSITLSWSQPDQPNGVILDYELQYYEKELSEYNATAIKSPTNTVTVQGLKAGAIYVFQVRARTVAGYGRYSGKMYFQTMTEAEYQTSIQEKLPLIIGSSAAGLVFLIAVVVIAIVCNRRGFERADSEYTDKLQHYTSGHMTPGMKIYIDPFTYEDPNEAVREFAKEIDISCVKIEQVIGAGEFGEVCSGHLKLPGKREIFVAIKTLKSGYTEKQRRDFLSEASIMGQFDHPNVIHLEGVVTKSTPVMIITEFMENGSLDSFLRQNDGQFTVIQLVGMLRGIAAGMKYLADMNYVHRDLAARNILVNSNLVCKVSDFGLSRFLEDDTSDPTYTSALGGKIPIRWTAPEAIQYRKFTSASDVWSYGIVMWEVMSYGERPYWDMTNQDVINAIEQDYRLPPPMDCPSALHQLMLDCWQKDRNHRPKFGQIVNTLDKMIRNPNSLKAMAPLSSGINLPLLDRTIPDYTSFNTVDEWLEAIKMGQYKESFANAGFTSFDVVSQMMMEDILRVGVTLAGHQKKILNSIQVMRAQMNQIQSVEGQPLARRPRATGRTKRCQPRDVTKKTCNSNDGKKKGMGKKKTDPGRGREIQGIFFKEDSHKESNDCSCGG

Molecular target: high mobility group box-1 (HMGB1) (human (endogenous in HAECs)) (UniProt P09429)
Assay: co-IP; HAEC lysates in 0.5% Triton X-100 with protease and phosphatase inhibitors; anti-HMGB1 antibody (5 ug; IgG as control) on protein A/G magnetic beads, overnight at 4 °C, three washes with lysis buffer; immunoblot; cells under LSS or transfected with pri-EPHB2

Which binding does the source give for “EPHB2 overexpressed from pLenti-CMV-GFP-Puro-EPHB2 (pri-EPHB2) (from UniProt P29323 19-1055) (receptor)” here?
The binding was “binds”.
